Reference: PubChem BioAssay AID248 (DTP/NCI, 2004)
The list does not hold the whole screen: it is rich in T/C values a quarter to a half above the control, in often repeated tests (any T/C) and in doses without a T/C. Further doses and runs are listed elsewhere. T/C gives the treated animals as a percentage of the vehicle group. Some entries give survivors of the animals treated and no T/C: the source holds a T/C of zero for them, seemingly a mark for toxic or unscored doses. Some survivor counts are full or nearly so, which does not show that the dose was tolerated: the source hardly ever lists a survival T/C far under the control, and the zero likely stands for such cases as well. Survivors were counted at the toxicity check, usually on the fifth day, unless a day is given; later deaths do not show. Schedule codes are those of the source, read here as Q, the interval in days (D) or hours (H), X, the number of doses. Some entries hold several experiments; the results are listed from low to high. Some schedule codes hold Z or #, which are not explained here. Where survival is the endpoint, the PubChem record calls one and a half times the control and up active, and a quarter to a half above the control has no call in these data; cut-offs in other NCI protocols can differ. Signs of the kind (2×) give the number of equal values in this list. Some T/C values are followed by the survivors on the day toxicity was checked, most often the fifth; where none is given, no animal had died by that day.

System: L1210 leukemia ip in BDF1 mice, survival T/C
Experiment: NCI In Vivo Anticancer Drug Screen. Data for tumor model L1210 Leukemia (intraperitoneal) in B6D2F1 (BDF1) mice
Conditions: T/C endpoint: mean survival time, higher T/C = longer survival
[1] = dose: 0.25 mg/kg/injection, schedule: Q01DX Z (ip), vehicle: saline
[2] = dose: 0.5 mg/kg/injection, schedule: Q01DX Z (ip), vehicle: saline
[3] = dose: 4.0 mg/kg/injection, schedule: Q01DX001 (ip), vehicle: saline
[4] = dose: 8.0 mg/kg/injection, schedule: Q01DX001 (ip), vehicle: saline
[5] = dose: 400.0 mg/kg/injection, schedule: Q04DX002 (ip), vehicle: Klucel (hydroxypropylcellulose) (HPC)
[6] = dose: 400.0 mg/kg/injection, schedule: Q04DX003 (ip), vehicle: Klucel (hydroxypropylcellulose) (HPC)
[7] = dose: 400.0 mg/kg/injection, schedule: Q04DX003 (ip), vehicle: saline

For `Nc1nc(N)c2nc(CNc3ccc(C(=O)NC(CCC(=O)O)C(=O)O)cc3)cnc2n1` (stereo unspecified), the T/C (dose: 0.02 mg/kg/injection, schedule: Q01DX Z (ip), vehicle: saline) was 141 % of control, the T/C (dose: 0.05 mg/kg/injection, schedule: Q01DX009 (ip), vehicle: saline) was 94 (3×) and 98 % of control and the T/C (dose: 0.05 mg/kg/injection, schedule: Q01DX Z (sc), vehicle: saline) was 139 % of control. For the same compound, the T/C (dose: 0.06 mg/kg/injection, schedule: Q01DX Z (ip), vehicle: saline) was 137 and 144 % of control, the T/C (dose: 0.1 mg/kg/injection, schedule: Q01DX006 (iv), vehicle: saline) was 129 % of control and the T/C (dose: 0.1 mg/kg/injection, schedule: Q01DX009 (ip), vehicle: saline) was 88, 92, 97, 108 % of control. For the same compound, the T/C (dose: 0.1 mg/kg/injection, schedule: Q01DX010 (ip), vehicle: other) was 127 % of control, the T/C (dose: 0.1 mg/kg/injection, schedule: Q01DX Z (ip), vehicle: saline) was 141 % of control and the T/C (dose: 0.1 mg/kg/injection, schedule: Q01DX Z (sc), vehicle: saline) was 127 % of control (2×). The T/C (dose: 0.2 mg/kg/injection, schedule: Q01DX006 (iv), vehicle: saline) was 145 % of control, the T/C (dose: 0.2 mg/kg/injection, schedule: Q01DX009 (ip), vehicle: saline) was 94, 97, 101, 108 % of control and the T/C [1] was 133 % of control. For the same compound, the survivor count [1] was 2 of 6, the T/C (dose: 0.4 mg/kg/injection, schedule: Q01DX009 (ip), vehicle: saline) was 94, 96, 105, 125 % of control and the survivor count (dose: 0.4 mg/kg/injection, schedule: Q01DX010 (ip), vehicle: other) was 6 of 6. The survivor count (dose: 0.5 mg/kg/injection, schedule: Q01DX006 (iv), vehicle: saline) was 3 of 6, the survivor count (dose: 0.5 mg/kg/injection, schedule: Q01DX Z (im), vehicle: saline) was 3 of 6 and the T/C [2] was 86 % of control [4 of 6 alive]. The survivor count [2] was 2 of 6, 3 of 6, 4 of 6, the T/C (dose: 1.0 mg/kg/injection, schedule: Q01DX001 (ip), vehicle: saline) was 125 % of control and the survivor count (dose: 1.0 mg/kg/injection, schedule: Q01DX Z (ip), vehicle: saline) was 3 of 6. The survivor count (dose: 1.0 mg/kg/injection, schedule: Q01DX Z (oral), vehicle: saline) was 4 of 6, the survivor count (dose: 1.0 mg/kg/injection, schedule: Q01DX Z (sc), vehicle: saline) was 3 of 6 and the survivor count (dose: 2.0 mg/kg/injection, schedule: Q01DX Z (oral), vehicle: saline) was 1 of 6. For the same compound, the T/C [3] was 106, 121, 138 % of control, the survivor count [3] was 3 of 6 and the T/C [4] was 98, 120, 132 % of control. For the same compound, the survivor count [4] was 3 of 6, the survivor count (dose: 16.0 mg/kg/injection, schedule: Q01DX001 (ip), vehicle: saline) was 3 of 6 and the survivor count (dose: 32.0 mg/kg/injection, schedule: Q01DX001 (ip), vehicle: saline) was 0 of 6. For the same compound, the survivor count (dose: 128.0 mg/kg/injection, schedule: Q01DX001 (ip), vehicle: saline) was 6 of 6, the survivor count (dose: 256.0 mg/kg/injection, schedule: Q01DX001 (ip), vehicle: saline) was 6 of 6 and the survivor count (dose: 512.0 mg/kg/injection, schedule: Q01DX001 (ip), vehicle: saline) was 6 of 6. For the same compound, the survivor count (dose: 1024.0 mg/kg/injection, schedule: Q01DX001 (ip), vehicle: saline) was 6 of 6.

`CCSc1ccc2c(cc1=O)C(NC(C)=O)CCc1cc(OC)c(OC)c(OC)c1-2` (stereo unspecified) was tested, and the survivor count (dose: 100.0 mg/kg/injection, schedule: Q04DX002 (ip), vehicle: Klucel (hydroxypropylcellulose) (HPC)) was 1 of 3 and 2 of 3, the survivor count (dose: 200.0 mg/kg/injection, schedule: Q04DX002 (ip), vehicle: Klucel (hydroxypropylcellulose) (HPC)) was 1 of 3 and the survivor count [5] was 0 of 3.

`CCN(CC)C(=S)S` was tested, and the T/C (dose: 125.0 mg/kg/injection, schedule: Q01DX009 (ip), vehicle: saline) was 97 (2×), 100, 101 % of control, the T/C (dose: 250.0 mg/kg/injection, schedule: Q01DX009 (ip), vehicle: saline) was 93, 95, 100, 103 % of control and the T/C (dose: 500.0 mg/kg/injection, schedule: Q01DX009 (ip), vehicle: saline) was 97 [5 of 6 alive], 98, 98 [4 of 6 alive], 103 % of control. The T/C (dose: 1000.0 mg/kg/injection, schedule: Q01DX009 (ip), vehicle: saline) was 112 [5 of 6 alive], 113, 114 [4 of 6 alive], 131 % of control [5 of 6 alive] and the T/C (dose: 1000.0 mg/kg/injection, schedule: Q01DX010 (ip), vehicle: saline) was 131 % of control.

In the case of `CC(O)C#N` (stereo unspecified), the survivor count (dose: 10.0 mg/kg/injection, schedule: Q04DX003 (ip), vehicle: saline) is reported as 5 of 6 and the survivor count (dose: 20.0 mg/kg/injection, schedule: Q04DX003 (ip), vehicle: saline) is reported as 1 of 6.

For `Nc1nc(N)c(N)c(=O)[nH]1`, the survivor count (dose: 200.0 mg/kg/injection, schedule: Q04DX003 (ip), vehicle: Klucel (hydroxypropylcellulose) (HPC)) was 3 of 6 and the survivor count [6] was 0 of 6.

With `COc1ccc2c(c1)C1C=[S+]c3ccccc3C1N2` (stereo unspecified) the survivor count (dose: 50.0 mg/kg/injection, schedule: Q01DX009 (ip), vehicle: saline) was 2 of 6.

In the case of `COc1ccc2c(c1OC)C1(CCN(C)C)CC(O)CCC1C=C2` (stereo unspecified), the survivor count [7] is reported as 3 of 6.

For `Cc1c2ccccc2c(C)c2c1cc(O)c1ccccc12`, the survivor count (dose: 200.0 mg/kg/injection, schedule: Q01DX009 (ip), vehicle: Klucel (hydroxypropylcellulose) (HPC)) was 0 of 3.

`COc1ccccc1/C(=C/c1ccc([N+](=O)[O-])cc1)C(=O)O` was tested, and the survivor count (dose: 400.0 mg/kg/injection, schedule: Q01DX009 (ip), vehicle: Klucel (hydroxypropylcellulose) (HPC)) was 3 of 3.

In the case of `C[N+](C)(C)Cn1nnc2ccccc21`, the survivor count (dose: 300.0 mg/kg/injection, schedule: Q01DX001 (ip), vehicle: saline) is reported as 0 of 6.

`CCN(CC)C(C)COC(=O)c1cc(=O)n(C)c2ccccc12` (stereo unspecified) was tested, and the survivor count [7] was 3 of 6.

For `CN(C)CCCN=NNc1nc[nH]c1C(N)=O`, the survivor count [6] was 3 of 6.

With `O=C(Nc1cc(C(F)(F)F)ccc1Cl)N(Cc1ccccc1)c1ccccc1` the T/C [5] was 129 % of control.

`CCCCS(=O)(=O)c1nc2ccc([N+](=O)[O-])cc2s1` was tested, and the survivor count (dose: 400.0 mg/kg/injection, schedule: Q04DX002 (ip), vehicle: saline with Tween-80) was 1 of 3.

With `Cc1nc(Cl)cc(Cl)c1C` the T/C (dose: 400.0 mg/kg/injection, schedule: Q04DX003 (ip), vehicle: other) was 125 % of control.

With `COc1ccccc1OCCN1Cc2ccccc2C1` the survivor count (dose: 400.0 mg/kg/injection, schedule: Q04DX003 (ip), vehicle: saline with Tween-80) was 2 of 6.

With `Brc1ccc2oc3ccccc3c2c1` the T/C (dose: 200.0 mg/kg/injection, schedule: Q04DX002 (ip), vehicle: saline) was 132 % of control.

`O=[Se]1OCc2ccccc2CO1` was tested, and the survivor count (dose: 75.0 mg/kg/injection, schedule: Q01DX001 (ip), vehicle: other) was 1 of 6, the survivor count (dose: 150.0 mg/kg/injection, schedule: Q01DX001 (ip), vehicle: other) was 0 of 6 and the survivor count (dose: 300.0 mg/kg/injection, schedule: Q01DX001 (ip), vehicle: other) was 0 of 6.
